Laboratory results: PubChem BioAssay AID504764 (Drosophila RNAi Screening Center, 2011)

- Screen: 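Genome-wide screen for regulators of Notch-driven gene expression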 (primary screen)
- Cells: Drosophila Kc167 cells
- Reagents: long dsRNA against Drosophila genes
- Timing: about 5 days (4 days dsRNA, then 24 h after transfection)
- Treatment: transfection of constitutively active membrane-tethered Notch lacking the extracellular domain, read 24 h later
- Read-out: 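Light from a Notch-responsive E(spl)m3 luciferase reporter under active Notch, with control-promoter and no-Notch reporter wells to normalise; raw counts from paired wells a and b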
- Scale: induced reporter light, run 1, well a and induced reporter light, run 1, well b: higher = more light from the Notch target reporter with active Notch; control promoter light, run 1, well a and control promoter light, run 1, well b: higher = more light from the viral control promoter (cell number, transfection, viability); uninduced reporter light, run 1, well a: higher = more light from the Notch target reporter without active Notch
- Call rule: 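Wells with low control signal or poorly matching duplicates excluded; duplicates averaged; per source plate, z beyond ±2 for induced/control log2 ratio or beyond ±1.8 for induced/uninduced marks a hit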
- Calls: active = modifier hit (raised or lowered Notch signal); inactive = not a hit
The screen tested about 22,000 reagents; below is a random part of those with a known target gene and a result. In the full data, 403 (1.9%) got an active call. 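Unnormalised raw counts per well; ratio z-scores behind the hit calls and whether each hit raises or lowers signal are not deposited.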 Reagents against one gene are numbered here. Not given: the amount of reagent.

gene | dsRNA no. | induced reporter light, run 1, well a | induced reporter light, run 1, well b | control promoter light, run 1, well a | control promoter light, run 1, well b | uninduced reporter light, run 1, well a | Outcome
CG14810 | 1 | 54150 | 63865 | 82940 | 92575 | 6625 | inactive
CG14810 | 2 | 75280 | 87900 | 1.26e5 | 1.14e5 | 6755 | inactive
Csk (C-terminal Src kinase) | 1 | 1.12e5 | 1.23e5 | 1.35e5 | 1.22e5 | 9775 | inactive
Csk (C-terminal Src kinase) | 2 | 26525 | 21060 | 16460 | 14765 | 5890 | inactive
ppk12 (pickpocket 12) | 1 | 2.74e5 | 2.47e5 | 2.80e5 | 2.71e5 | 20225 | inactive
CG2021 | 1 | 1.30e5 | 1.12e5 | 2.19e5 | 1.36e5 | 4328 | inactive
ppk9 (pickpocket 9) | 1 | 72210 | 39870 | 43955 | 46585 | 2565 | inactive
ppk9 (pickpocket 9) | 2 | 37175 | 39450 | 39185 | 46765 | 1925 | inactive
RunxB (Runt related B) | 1 | 1.14e5 | 90450 | 97415 | 93760 | 7180 | inactive
RunxB (Runt related B) | 2 | 45995 | 64950 | 51835 | 66965 | 9070 | inactive
RunxB (Runt related B) | 3 | 2332 | 2620 | 2670 | 2735 | 3240 | inactive
uri (unconventional prefoldin RPB5 interactor) | 1 | 1.67e5 | 1.61e5 | 1.57e5 | 1.67e5 | 13485 | inactive
Mal-A7 (Maltase A7) | 1 | 1.92e5 | 2.01e5 | 2.18e5 | 2.24e5 | 17115 | inactive
ND-24L (NADH dehydrogenase (ubiquinone) 24 kDa subunit-like) | 1 | 1.86e5 | 1.54e5 | 2.53e5 | 2.50e5 | 12020 | inactive
Gr5a (Gustatory receptor 5a) | 1 | 1.76e5 | 1.29e5 | 1.91e5 | 1.92e5 | 9462 | inactive
CG9368 | 1 | 1.13e5 | 1.41e5 | 98815 | 93755 | 10725 | inactive
wge (winged eye) | 1 | 1.58e5 | 1.72e5 | 2.48e5 | 2.64e5 | 11945 | inactive
wge (winged eye) | 2 | 1.52e5 | 1.58e5 | 1.88e5 | 1.92e5 | 11065 | inactive
Lkb1 (Lkb1 kinase) | 1 | 1.31e5 | 1.06e5 | 81865 | 65400 | 11115 | inactive
RpS13 (Ribosomal protein S13) | 1 | 25035 | 26500 | 25060 | 32150 | 1488 | inactive
CG8519 | 1 | 2.96e5 | 2.25e5 | 3.33e5 | 3.17e5 | 14690 | inactive
CG13339 | 1 | 99465 | 1.16e5 | 1.63e5 | 1.70e5 | 10285 | inactive
Ir52b (Ionotropic receptor 52b) | 1 | 1.29e5 | 1.20e5 | 1.63e5 | 1.46e5 | 9640 | inactive
Alp5 (Alkaline phosphatase 5) | 1 | 1.93e5 | 1.81e5 | 2.11e5 | 2.38e5 | 14500 | inactive
bmm (brummer) | 1 | 1.04e5 | 1.36e5 | 68800 | 84205 | 7865 | inactive
CG14207 | 1 | 1.48e5 | 1.54e5 | 1.33e5 | 85760 | 10765 | inactive
CG14207 | 2 | 66810 | 84840 | 75605 | 91065 | 9350 | inactive
JYalpha | 1 | 97660 | 1.12e5 | 1.58e5 | 2.15e5 | 7732 | inactive
CG4338 | 1 | 1.49e5 | 1.51e5 | 91560 | 1.03e5 | 10795 | inactive
CG10347 | 1 | 1.35e5 | 1.59e5 | 3.19e5 | 2.56e5 | 11340 | inactive
su(w[a]) (suppressor of white-apricot) | 1 | 1.18e5 | 1.48e5 | 1.07e5 | 1.07e5 | 10815 | active
CG17032 | 1 | 1.41e5 | 1.49e5 | 2.01e5 | 1.70e5 | 9100 | inactive
Cpr65Ay (Cuticular protein 65Ay) | 1 | 2.61e5 | 2.42e5 | 2.58e5 | 2.28e5 | 20210 | inactive
CG16965 | 1 | 1.36e5 | 1.64e5 | 1.78e5 | 1.76e5 | 14000 | inactive
CG5177 | 1 | 1.68e5 | 1.64e5 | 1.80e5 | 1.93e5 | 14560 | inactive
Agpat4 (1-Acylglycerol-3-phosphate O-acyltransferase 4) | 1 | 1.31e5 | 1.38e5 | 1.68e5 | 1.45e5 | 6645 | inactive
CR42532 (pseudo) | 1 | 1.20e5 | 1.24e5 | 1.62e5 | 1.36e5 | 10275 | inactive
jim | 1 | 1.47e5 | 1.09e5 | 58570 | 66220 | 8445 | inactive
CG33124 | 1 | 1.52e5 | 1.12e5 | 97310 | 1.04e5 | 9835 | inactive
ckn (caskin) | 1 | 1.11e5 | 1.02e5 | 1.14e5 | 1.23e5 | 7392 | inactive
Tsp42Ec (Tetraspanin 42Ec) | 1 | 1.75e5 | 2.10e5 | 2.42e5 | 2.13e5 | 16240 | inactive
fiz (fezzik) | 1 | 1.72e5 | 1.59e5 | 2.27e5 | 2.21e5 | 13365 | inactive
Or85b (Odorant receptor 85b) | 1 | 95910 | 1.21e5 | 1.31e5 | 1.23e5 | 9190 | inactive
CG6688 | 1 | 1.36e5 | 1.28e5 | 1.93e5 | 1.58e5 | 11590 | inactive
CSN8 (COP9 signalosome subunit 8) | 1 | 2.21e5 | 2.10e5 | 1.84e5 | 2.06e5 | 22995 | inactive
CG6805 | 1 | 1.18e5 | 1.15e5 | 1.92e5 | 2.24e5 | 8250 | inactive
CCHa1 (CCHamide-1) | 1 | 63970 | 76745 | 25860 | 28250 | 11960 | inactive
mtg (mind the gap) | 1 | 40415 | 45975 | 37145 | 43800 | 3105 | inactive
CG31870 | 1 | – | – | – | – | – | inactive
COX2 (retired record) | 1 | 1.33e5 | 1.27e5 | 1.02e5 | 1.04e5 | 11285 | inactive
Hacd1 (3-hydroxyacyl-CoA dehydratase 1) | 1 | 2.42e5 | 2.45e5 | 2.04e5 | 2.32e5 | 17460 | inactive
CG31326 | 1 | 3.34e5 | 3.31e5 | 2.41e5 | 2.54e5 | 20375 | inactive
eRF1 (eukaryotic translation release factor 1) | 1 | 20560 | 18165 | 24705 | 21045 | 1575 | inactive
Sem1 (Suppressor of exocyst mutations 1) | 1 | 17230 | 14878 | 16060 | 17232 | 2630 | inactive
CG30414 | 1 | 2.19e5 | 1.82e5 | 2.06e5 | 1.68e5 | 13610 | inactive
IM33 (Immune induced molecule 33) | 1 | 73400 | 54310 | 59635 | 60465 | 3655 | inactive
Cp19 (Chorion protein 19) | 1 | 1.55e5 | 1.39e5 | 1.47e5 | 1.74e5 | 10105 | inactive
CG8087 | 1 | 2.11e5 | 2.32e5 | 2.19e5 | 2.36e5 | 17600 | inactive
Ttc7 (Tetratricopeptide repeat domain 7) | 1 | 1.83e5 | 1.75e5 | 1.86e5 | 2.02e5 | 14340 | inactive
CG5611 | 1 | 1.58e5 | 1.72e5 | 2.45e5 | 2.04e5 | 14005 | inactive
mthl8 (methuselah-like 8) | 1 | 1.05e5 | 1.05e5 | 2.18e5 | 2.83e5 | 10220 | inactive
mthl8 (methuselah-like 8) | 2 | 1.20e5 | 1.16e5 | 1.70e5 | 1.14e5 | 5660 | inactive
Gr10a (Gustatory receptor 10a) | 1 | 1.01e5 | 1.02e5 | 1.30e5 | 1.08e5 | 7415 | inactive
CG5767 | 1 | 50190 | 43645 | 49950 | 37185 | 2832 | inactive
